{"source": "PubChem BioAssay AID743454 (Peter MacCallum Cancer Centre, 2014)", "screen": "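Search for knock-downs that restore vorinostat killing in resistant colon cancer cells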 (primary screen)", "cells": "human HCT116-VR colon cancer cells, selected for vorinostat resistance", "reagent": "siRNA pool against human genes, 40 nM siRNA pool", "duration": "vorinostat for 24 h, read-out about 72 h after transfection", "challenge": "vorinostat at 2.5 µM final", "measurement": "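Two measures, CellTiter-Fluor viability and luminescent caspase 3/7 activity, each as fold change against same-plate mock wells, mean of duplicates, then screen-wide robust z-score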", "reading the numbers": "viability robust z-score: higher = more viable cells than screen typical; caspase robust z-score: higher = more caspase 3/7 activity than screen typical", "hit rule": "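Hits are knock-downs in viability class RV1/RV2 or caspase class CA1/CA2, excluding ones that killed cells in the no-drug cell-count arm; hits then retested with single siRNAs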", "note": "The deposit covers about 18,000 reagents; shown is a part drawn at random. 450 of them (2.5%) were called active. 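Single biological run; no consistent viability z cut-off exists, so the class columns, not z-scores, define the calls.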 Unmarked entries are inactive."}
{"target gene":"ITGAM","viability hit class":"no change","caspase hit class":"no change","viability robust z-score":0.14,"caspase robust z-score":-0.63}
{"target gene":"CTHRC1","viability hit class":"no change","caspase hit class":"no change","viability robust z-score":-0.23,"caspase robust z-score":0.23}
{"target gene":"CAMP","viability hit class":"no change","caspase hit class":"no change","viability robust z-score":0.12,"caspase robust z-score":-1.12}
{"target gene":"CFL2","viability hit class":"no change","caspase hit class":"no change","viability robust z-score":-0.34,"caspase robust z-score":0.18}
{"target gene":"DDX18","viability hit class":"RV2 (reduced viability) (active)","caspase hit class":"no change","viability robust z-score":-3.34,"caspase robust z-score":0.92}
{"target gene":"RRN3","viability hit class":"no change","caspase hit class":"no change","viability robust z-score":-2.72,"caspase robust z-score":0.68}
{"target gene":"SLC36A4","viability hit class":"no change","caspase hit class":"no change","viability robust z-score":0.78,"caspase robust z-score":-0.38}
{"target gene":"PHF23","viability hit class":"no change","caspase hit class":"no change","viability robust z-score":-0.04,"caspase robust z-score":-0.92}
{"target gene":"PLEKHN1","viability hit class":"no change","caspase hit class":"no change","viability robust z-score":-0.99,"caspase robust z-score":0.48}
{"target gene":"KRTCAP2","viability hit class":"no change","caspase hit class":"no change","viability robust z-score":-0.15,"caspase robust z-score":0.21}
{"target gene":"NELFB","viability hit class":"no change","caspase hit class":"no change","viability robust z-score":0.53,"caspase robust z-score":0.03}
{"target gene":"MRPS7","viability hit class":"no change","caspase hit class":"no change","viability robust z-score":1.07,"caspase robust z-score":-0.6}
{"target gene":"GINS1","viability hit class":"no change","caspase hit class":"no change","viability robust z-score":0.45,"caspase robust z-score":-1.11}
{"target gene":"TAF1","viability hit class":"no change","caspase hit class":"no change","viability robust z-score":-0.32,"caspase robust z-score":-0.54}
{"target gene":"KCNK13","viability hit class":"no change","caspase hit class":"no change","viability robust z-score":-0.38,"caspase robust z-score":2.34}
{"target gene":"SNHG29","viability hit class":"no change","caspase hit class":"no change","viability robust z-score":-0.88,"caspase robust z-score":2.5}
{"target gene":"CIAO3","viability hit class":"no change","caspase hit class":"no change","viability robust z-score":-0.54,"caspase robust z-score":-0.94}
{"target gene":"PANX1","viability hit class":"no change","caspase hit class":"no change","viability robust z-score":-0.08,"caspase robust z-score":0.31}
{"target gene":"SPINK4","viability hit class":"no change","caspase hit class":"no change","viability robust z-score":-0.62,"caspase robust z-score":-0.24}
{"target gene":"PEX1","viability hit class":"no change","caspase hit class":"no change","viability robust z-score":0.87,"caspase robust z-score":-0.27}
{"target gene":"ZNF567","viability hit class":"no change","caspase hit class":"no change","viability robust z-score":-0.58,"caspase robust z-score":0.84}
{"target gene":"SAMD4B","viability hit class":"no change","caspase hit class":"no change","viability robust z-score":-2.46,"caspase robust z-score":2.19}
{"target gene":"CKS1B","viability hit class":"no change","caspase hit class":"no change","viability robust z-score":-0.05,"caspase robust z-score":-0.74}
{"target gene":"KRTAP23-1","viability hit class":"no change","caspase hit class":"no change","viability robust z-score":-0.4,"caspase robust z-score":0.52}
{"target gene":"NR5A2","viability hit class":"no change","caspase hit class":"no change","viability robust z-score":-1.27,"caspase robust z-score":0.04}
{"target gene":"CCDC162P","viability hit class":"no change","caspase hit class":"no change","viability robust z-score":0.52,"caspase robust z-score":-0.93}
{"target gene":"MAGIX","viability hit class":"no change","caspase hit class":"no change","viability robust z-score":-0.78,"caspase robust z-score":3.46}

4 entries from above, ordered by “viability robust z-score”, highest first:
{"target gene":"SLC36A4","viability hit class":"no change","caspase hit class":"no change","viability robust z-score":0.78,"caspase robust z-score":-0.38}
{"target gene":"PHF23","viability hit class":"no change","caspase hit class":"no change","viability robust z-score":-0.04,"caspase robust z-score":-0.92}
{"target gene":"KRTCAP2","viability hit class":"no change","caspase hit class":"no change","viability robust z-score":-0.15,"caspase robust z-score":0.21}
{"target gene":"PLEKHN1","viability hit class":"no change","caspase hit class":"no change","viability robust z-score":-0.99,"caspase robust z-score":0.48}
